Test results from PMC5325439.
No constants are given. Whether binding was seen depends on the method and setting. In cells and extracts the contact can be indirect. Some entries that bind do so weakly or less than the wild type. Sequences can lack the tags named with a protein.

By UniProt entry, the sequences of proteins in these tests, tags left out.
UniProt P05412: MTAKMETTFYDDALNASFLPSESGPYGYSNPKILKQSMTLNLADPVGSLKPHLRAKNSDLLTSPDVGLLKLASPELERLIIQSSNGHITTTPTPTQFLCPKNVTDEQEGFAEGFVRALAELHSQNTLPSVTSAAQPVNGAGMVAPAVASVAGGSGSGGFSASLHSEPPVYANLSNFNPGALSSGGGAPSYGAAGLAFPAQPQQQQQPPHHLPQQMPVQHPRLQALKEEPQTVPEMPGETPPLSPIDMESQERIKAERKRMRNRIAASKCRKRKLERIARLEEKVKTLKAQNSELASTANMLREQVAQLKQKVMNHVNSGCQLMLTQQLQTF

Tests used:
[1] = molecular target: T1, His-tagged LASP1 (LIM and SH3 protein 1) (UniProt Q14847); assay: pull-down; 500 ul MDA-MB-231-shLASP1 cell lysate (RIPA+ buffer) rotated with 2 ug His6-LASP1 for 2 h at 4°C, then magnetic His-beads 15 min at 4°C; washed with ice-cold PBS; Western blot; also tried with purified nucleus preparation; only the target purified
T1 sequence: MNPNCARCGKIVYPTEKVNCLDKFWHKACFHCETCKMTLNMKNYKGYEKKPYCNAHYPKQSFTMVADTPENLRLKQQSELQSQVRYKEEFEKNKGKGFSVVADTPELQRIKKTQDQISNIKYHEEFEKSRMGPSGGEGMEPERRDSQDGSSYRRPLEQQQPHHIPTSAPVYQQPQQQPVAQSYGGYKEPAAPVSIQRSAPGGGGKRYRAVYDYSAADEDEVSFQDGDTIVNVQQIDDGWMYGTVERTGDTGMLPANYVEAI

[2] = molecular target: T2, GST-tagged LASP1 (LIM and SH3 protein 1) (UniProt Q14847); assay: condition: 2 μg GST-tagged LASP1 in 500 μl cell lysate; pull-down; 500 ul MDA-MB-231-shLASP1 cell lysate (RIPA+ buffer) incubated with 2 ug GST-tagged LASP1 for 1 h at 4°C, then 50 ul GST-sepharose beads 60 min; washed with ice-cold PBS; Western blot; also tried with purified nucleus preparation; only the target purified
T2 sequence: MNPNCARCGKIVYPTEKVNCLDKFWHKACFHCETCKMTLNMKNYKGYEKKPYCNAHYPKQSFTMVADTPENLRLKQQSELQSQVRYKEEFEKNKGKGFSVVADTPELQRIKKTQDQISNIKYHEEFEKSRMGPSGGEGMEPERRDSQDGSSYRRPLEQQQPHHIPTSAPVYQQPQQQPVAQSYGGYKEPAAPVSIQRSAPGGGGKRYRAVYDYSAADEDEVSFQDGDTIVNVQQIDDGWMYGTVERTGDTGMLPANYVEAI

“c-Jun, endogenous (from UniProt P05412 1-331)” was tested, and the binding [1] was “no binding (tested: 2 μg His6-LASP1 in 500 μl cell lysate)” and the binding [2] was “no binding”.

B1: zyxin, endogenous (protein, UniProt Q15942 1-572)
chain: MAAPRPSPAISVSVSAPAFYAPQKKFGPVVAPKPKVNPFRPGDSEPPPAPGAQRAQMGRVGEIPPPPPEDFPLPPPPLAGDGDDAEGALGGAFPPPPPPIEESFPPAPLEEEIFPSPPPPPEEEGGPEAPIPPPPQPREKVSSIDLEIDSLSSLLDDMTKNDPFKARVSSGYVPPPVATPFSSKSSTKPAAGGTAPLPPWKSPSSSQPLPQVPAPAQSQTQFHVQPQPQPKPQVQLHVQSQTQPVSLANTQPRGPPASSPAPAPKFSPVTPKFTPVASKFSPGAPGGSGSQPNQKLGHPEALSAGTGSPQPPSFTYAQQREKPRVQEKQHPVPPPAQNQNQVRSPGAPGPLTLKEVEELEQLTQQLMQDMEHPQRQNVAVNELCGRCHQPLARAQPAVRALGQLFHIACFTCHQCAQQLQGQQFYSLEGAPYCEGCYTDTLEKCNTCGEPITDRMLRATGKAYHPHCFTCVVCARPLEGTSFIVDQANRPHCVPDYHKQYAPRCSVCSEPIMPEPGRDETVRVVALDKNFHMKCYKCEDCGKPLSIEADDNGCFPLDGHVLCRKCHTARAQT
With B1 the binding [1] was “binds”.
